Laboratory results taken from article PMC10641673.
No constants are given. Whether binding was seen depends on the method and setting. Binding seen in cells or lysates may run through a third protein. Some binding calls cover weakened binding; strength is not graded here.

Chains of the proteins cited; added tags and fusions are not shown.
UniProt P08047: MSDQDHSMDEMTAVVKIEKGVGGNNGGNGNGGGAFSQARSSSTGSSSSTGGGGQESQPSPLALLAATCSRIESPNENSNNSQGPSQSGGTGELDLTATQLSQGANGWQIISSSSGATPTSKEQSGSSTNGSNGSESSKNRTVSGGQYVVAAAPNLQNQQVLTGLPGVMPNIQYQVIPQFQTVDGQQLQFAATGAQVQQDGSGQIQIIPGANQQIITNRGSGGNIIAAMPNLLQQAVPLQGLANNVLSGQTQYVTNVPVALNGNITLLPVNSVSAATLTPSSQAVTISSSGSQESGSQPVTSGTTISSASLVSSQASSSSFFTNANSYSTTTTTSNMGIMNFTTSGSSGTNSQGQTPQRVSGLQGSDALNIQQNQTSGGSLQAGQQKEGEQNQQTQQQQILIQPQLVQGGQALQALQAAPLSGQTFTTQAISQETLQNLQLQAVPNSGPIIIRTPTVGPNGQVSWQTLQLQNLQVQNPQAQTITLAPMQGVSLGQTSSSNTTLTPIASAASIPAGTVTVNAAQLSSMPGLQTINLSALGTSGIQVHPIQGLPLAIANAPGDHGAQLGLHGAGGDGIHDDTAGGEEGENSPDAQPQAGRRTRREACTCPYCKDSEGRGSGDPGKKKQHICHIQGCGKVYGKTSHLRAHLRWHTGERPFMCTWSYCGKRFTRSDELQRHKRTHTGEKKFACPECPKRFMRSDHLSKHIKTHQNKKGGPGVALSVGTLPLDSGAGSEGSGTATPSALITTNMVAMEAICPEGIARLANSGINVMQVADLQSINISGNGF

Legend:
[1] = target: specific protein 1 transcription factor (Sp1) (human (endogenous in HCC1806 and HCC1937)) (UniProt P08047); experiment: co-IP; nuclear cell lysates of HCC1806 and HCC1937 cells, Western blot
[2] = target: specific protein 1 transcription factor (Sp1) (human (endogenous in HCC1806 and HCC1937)) (UniProt P08047); experiment: co-IP; cytoplasmic cell lysates of HCC1806 and HCC1937 cells, Western blot
[3] = target: specific protein 1 transcription factor (Sp1) (human (endogenous in HCC1806 and HCC1937)) (UniProt P08047); experiment: co-IP; lysates of HCC1806 and HCC1937 cells (150 mM NaCl, 1 mM EDTA pH 8.0, 50 mM Tris-HCl pH 7.4, 1% Triton X-100), indicated antibodies 36 h at 4 °C, protein A/G magnetic beads, Western blot; IgG as negative control

binding [1]: binds
binding [3]: binds
B1: ε-Sarcoglycan (SGCE) (protein, UniProt O43556 1-437)
chain: MQLPRWWELGDPCAWTGQGRGTRRMSPATTGTFLLTVYSIFSKVHSDRNVYPSAGVLFVHVLEREYFKGEFPPYPKPGEISNDPITFNTNLMGYPDRPGWLRYIQRTPYSDGVLYGSPTAENVGKPTIIEITAYNRRTFETARHNLIINIMSAEDFPLPYQAEFFIKNMNVEEMLASEVLGDFLGAVKNVWQPERLNAINITSALDRGGRVPLPINDLKEGVYVMVGADVPFSSCLREVENPQNQLRCSQEMEPVITCDKKFRTQFYIDWCKISLVDKTKQVSTYQEVIRGEGILPDGGEYKPPSDSLKSRDYYTDFLITLAVPSAVALVLFLILAYIMCCRREGVEKRNMQTPDIQLVHHSAIQKSTKELRDMSKNREIAWPLSTLPVFHPVTGEIIPPLHTDNYDSTNMPLMQTQQNLPHQTQIPQQQTTGKWYP
binding [2]: no binding (condition: in the cytoplasmic cell lysate)
